# Experimental data taken from patent publication US20140227262A1, “PD-1 Antagonists and Methods for Treating Infectious Disease” (AMPLIMMUNE, INC., priority 2008, published 2014).
# Amino acid sequences for entries named in this document (tags omitted). Residues count along the entry.
# UniProt Q02242, residues 25-167: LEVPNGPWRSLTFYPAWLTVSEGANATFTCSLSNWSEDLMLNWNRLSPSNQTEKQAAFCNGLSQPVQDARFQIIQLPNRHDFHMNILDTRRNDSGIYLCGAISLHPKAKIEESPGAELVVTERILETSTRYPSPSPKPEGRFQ
# These are yes or no findings as the source states them, for the method shown. Some results given as binding are weak or reduced against the parent protein; the word gives no strength.
# Molecular target: recombinant mouse PD-1/Fc (R&D Systems) (mouse) (UniProt Q02242)
# Assay: ELISA, plate coated with recombinant mouse PD-1/Fc
row,binding,Binder
1,binds,wild type murine B7-DC-Ig (Fc fusion) LFTVTAPKEVYTVDVGSSVSLECDFDRRECTELEGIRASLQKVENDTSLQSERATLLEEQLPLGKALFHIPSVQVRDSGQYRCLVICGAAWDYKYLTVKVKASYMRIDTRILEVPGTGEVQLTCQARGYPLAEVSWQNVSVPANTSHIRTPEGLYQVTSVLRLKPQPSRNFSCMFWNAHMKELTSAIIDPLSRMEPKVPRTWEPRGPTIKPCPPCKCPAPNLLGGPSVFIFPPKIKDVLMISLSPIVTCVVVDVSEDDPDVQISWFVNNVEVHTAQTQTHREDYNSTLRVVSALPIQHQDWMSGKEFKCKVNNKDLPAPIERTISKPKGSVRAPQVYVLPPPEEEMTKKQVTLTCMVTDFMPEDIYVEWTNNGKTELNYKNTEPVLDSDGSYFMYSKLRVEKKNWVERNSYSCSVVHEGLHNHHTTKSFSRTPGK
2,binds,murine B7-DC-Ig with the K113S substitution (Fc fusion) LFTVTAPKEVYTVDVGSSVSLECDFDRRECTELEGIRASLQKVENDTSLQSERATLLEEQLPLGKALFHIPSVQVRDSGQYRCLVICGAAWDYSYLTVKVKASYMRIDTRILEVPGTGEVQLTCQARGYPLAEVSWQNVSVPANTSHIRTPEGLYQVTSVLRLKPQPSRNFSCMFWNAHMKELTSAIIDPLSRMEPKVPRTWEPRGPTIKPCPPCKCPAPNLLGGPSVFIFPPKIKDVLMISLSPIVTCVVVDVSEDDPDVQISWFVNNVEVHTAQTQTHREDYNSTLRVVSALPIQHQDWMSGKEFKCKVNNKDLPAPIERTISKPKGSVRAPQVYVLPPPEEEMTKKQVTLTCMVTDFMPEDIYVEWTNNGKTELNYKNTEPVLDSDGSYFMYSKLRVEKKNWVERNSYSCSVVHEGLHNHHTTKSFSRTPGK
3,binds,murine B7-DC-Ig with the D111S substitution (Fc fusion) LFTVTAPKEVYTVDVGSSVSLECDFDRRECTELEGIRASLQKVENDTSLQSERATLLEEQLPLGKALFHIPSVQVRDSGQYRCLVICGAAWSYKYLTVKVKASYMRIDTRILEVPGTGEVQLTCQARGYPLAEVSWQNVSVPANTSHIRTPEGLYQVTSVLRLKPQPSRNFSCMFWNAHMKELTSAIIDPLSRMEPKVPRTWEPRGPTIKPCPPCKCPAPNLLGGPSVFIFPPKIKDVLMISLSPIVTCVVVDVSEDDPDVQISWFVNNVEVHTAQTQTHREDYNSTLRVVSALPIQHQDWMSGKEFKCKVNNKDLPAPIERTISKPKGSVRAPQVYVLPPPEEEMTKKQVTLTCMVTDFMPEDIYVEWTNNGKTELNYKNTEPVLDSDGSYFMYSKLRVEKKNWVERNSYSCSVVHEGLHNHHTTKSFSRTPGK
